Our source for the binding values is article doi:10.1101/2023.11.28.568893.

Chains of the proteins cited; added tags and fusions are not shown. Residues count along the entry.
UniProt Q8VC19, residues 57-642: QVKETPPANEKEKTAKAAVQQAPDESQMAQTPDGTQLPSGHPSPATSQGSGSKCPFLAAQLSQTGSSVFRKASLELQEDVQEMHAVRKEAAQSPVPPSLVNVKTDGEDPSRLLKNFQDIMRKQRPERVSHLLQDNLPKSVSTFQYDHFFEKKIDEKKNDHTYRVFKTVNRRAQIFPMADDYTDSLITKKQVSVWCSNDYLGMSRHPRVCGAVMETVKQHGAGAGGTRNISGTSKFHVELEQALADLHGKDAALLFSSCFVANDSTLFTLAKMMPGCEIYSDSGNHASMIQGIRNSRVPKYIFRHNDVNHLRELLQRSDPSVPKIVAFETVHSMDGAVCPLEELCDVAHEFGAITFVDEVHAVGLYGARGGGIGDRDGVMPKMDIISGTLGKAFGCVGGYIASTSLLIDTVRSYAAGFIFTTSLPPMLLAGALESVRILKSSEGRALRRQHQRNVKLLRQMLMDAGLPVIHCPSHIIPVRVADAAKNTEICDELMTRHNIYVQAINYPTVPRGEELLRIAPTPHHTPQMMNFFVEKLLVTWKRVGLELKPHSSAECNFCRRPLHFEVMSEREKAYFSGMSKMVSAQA

This test deals with T1, Propionyl-CoA carboxylase (PCCA) (mouse (endogenous in brown adipocytes)) (UniProt Q91ZA3).
T1 sequence: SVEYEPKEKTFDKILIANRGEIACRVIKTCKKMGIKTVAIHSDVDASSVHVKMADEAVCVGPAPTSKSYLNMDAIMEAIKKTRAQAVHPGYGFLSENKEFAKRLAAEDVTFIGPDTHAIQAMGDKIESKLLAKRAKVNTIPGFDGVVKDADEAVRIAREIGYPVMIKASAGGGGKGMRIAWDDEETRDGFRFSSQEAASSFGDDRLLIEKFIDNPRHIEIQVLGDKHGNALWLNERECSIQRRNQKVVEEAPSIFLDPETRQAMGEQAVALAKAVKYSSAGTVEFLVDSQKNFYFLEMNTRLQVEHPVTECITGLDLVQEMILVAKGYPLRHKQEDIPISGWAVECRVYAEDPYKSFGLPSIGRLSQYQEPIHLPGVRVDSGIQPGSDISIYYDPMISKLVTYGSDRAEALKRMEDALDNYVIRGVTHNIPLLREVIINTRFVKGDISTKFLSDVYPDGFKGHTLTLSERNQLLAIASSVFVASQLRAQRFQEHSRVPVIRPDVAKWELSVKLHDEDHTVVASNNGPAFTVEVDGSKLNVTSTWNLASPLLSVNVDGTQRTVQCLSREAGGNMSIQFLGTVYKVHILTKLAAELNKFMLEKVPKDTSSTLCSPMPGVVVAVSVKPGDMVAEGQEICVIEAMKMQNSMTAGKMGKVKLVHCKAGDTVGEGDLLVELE
The test is described as follows: proximity ligation.

These are yes or no findings as the source states them, for the method shown. Binding seen in cells or lysates may run through a third protein. Some binding calls cover weakened binding; strength is not graded here.

Take “Aminolaevulinic Acid Synthase 1 (ALAS1) (from UniProt Q8VC19 57-642) (enzyme)”: the binding entry is recorded as “binds”.
